Protein sequences, listed by entry. Tags and fused reporters are not part of them.
UniProt P06537: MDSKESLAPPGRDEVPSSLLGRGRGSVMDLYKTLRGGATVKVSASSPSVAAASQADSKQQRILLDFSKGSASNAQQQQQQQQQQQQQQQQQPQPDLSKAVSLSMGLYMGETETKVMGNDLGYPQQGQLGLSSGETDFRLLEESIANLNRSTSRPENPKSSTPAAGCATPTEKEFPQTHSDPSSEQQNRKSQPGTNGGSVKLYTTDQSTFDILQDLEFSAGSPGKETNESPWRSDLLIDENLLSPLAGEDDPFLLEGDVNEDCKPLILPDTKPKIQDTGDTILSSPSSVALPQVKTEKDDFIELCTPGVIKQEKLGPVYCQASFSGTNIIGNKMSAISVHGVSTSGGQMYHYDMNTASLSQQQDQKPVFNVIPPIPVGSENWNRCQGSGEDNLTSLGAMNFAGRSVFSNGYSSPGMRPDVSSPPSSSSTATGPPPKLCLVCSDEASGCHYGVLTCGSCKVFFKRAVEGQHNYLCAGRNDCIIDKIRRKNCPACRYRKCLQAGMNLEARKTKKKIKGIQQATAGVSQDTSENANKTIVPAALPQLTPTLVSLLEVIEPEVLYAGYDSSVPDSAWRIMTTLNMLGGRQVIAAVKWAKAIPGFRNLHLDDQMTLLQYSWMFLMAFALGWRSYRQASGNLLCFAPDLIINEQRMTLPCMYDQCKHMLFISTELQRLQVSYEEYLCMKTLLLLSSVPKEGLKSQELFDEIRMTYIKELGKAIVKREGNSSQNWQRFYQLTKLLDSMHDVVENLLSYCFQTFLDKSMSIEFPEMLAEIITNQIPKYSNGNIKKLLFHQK
UniProt O54950: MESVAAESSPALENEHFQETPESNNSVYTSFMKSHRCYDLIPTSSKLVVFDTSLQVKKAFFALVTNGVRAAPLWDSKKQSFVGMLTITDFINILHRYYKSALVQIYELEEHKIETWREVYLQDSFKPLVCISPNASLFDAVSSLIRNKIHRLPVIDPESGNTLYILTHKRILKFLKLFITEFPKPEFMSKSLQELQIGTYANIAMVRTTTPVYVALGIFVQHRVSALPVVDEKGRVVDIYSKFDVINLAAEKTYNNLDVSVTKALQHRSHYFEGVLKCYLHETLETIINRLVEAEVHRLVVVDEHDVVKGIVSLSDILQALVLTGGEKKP
UniProt Q570Y9: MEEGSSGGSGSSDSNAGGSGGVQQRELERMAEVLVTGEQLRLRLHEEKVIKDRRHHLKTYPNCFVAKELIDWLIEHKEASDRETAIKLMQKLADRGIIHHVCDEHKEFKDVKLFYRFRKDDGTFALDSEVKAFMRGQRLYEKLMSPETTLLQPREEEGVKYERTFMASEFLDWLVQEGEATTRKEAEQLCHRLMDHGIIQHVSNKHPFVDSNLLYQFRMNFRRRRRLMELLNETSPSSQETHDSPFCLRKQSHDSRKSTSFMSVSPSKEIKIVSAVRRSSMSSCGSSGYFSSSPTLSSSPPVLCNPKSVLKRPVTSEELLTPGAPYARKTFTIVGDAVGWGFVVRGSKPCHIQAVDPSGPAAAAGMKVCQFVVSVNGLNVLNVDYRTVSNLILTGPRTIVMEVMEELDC
UniProt P42230: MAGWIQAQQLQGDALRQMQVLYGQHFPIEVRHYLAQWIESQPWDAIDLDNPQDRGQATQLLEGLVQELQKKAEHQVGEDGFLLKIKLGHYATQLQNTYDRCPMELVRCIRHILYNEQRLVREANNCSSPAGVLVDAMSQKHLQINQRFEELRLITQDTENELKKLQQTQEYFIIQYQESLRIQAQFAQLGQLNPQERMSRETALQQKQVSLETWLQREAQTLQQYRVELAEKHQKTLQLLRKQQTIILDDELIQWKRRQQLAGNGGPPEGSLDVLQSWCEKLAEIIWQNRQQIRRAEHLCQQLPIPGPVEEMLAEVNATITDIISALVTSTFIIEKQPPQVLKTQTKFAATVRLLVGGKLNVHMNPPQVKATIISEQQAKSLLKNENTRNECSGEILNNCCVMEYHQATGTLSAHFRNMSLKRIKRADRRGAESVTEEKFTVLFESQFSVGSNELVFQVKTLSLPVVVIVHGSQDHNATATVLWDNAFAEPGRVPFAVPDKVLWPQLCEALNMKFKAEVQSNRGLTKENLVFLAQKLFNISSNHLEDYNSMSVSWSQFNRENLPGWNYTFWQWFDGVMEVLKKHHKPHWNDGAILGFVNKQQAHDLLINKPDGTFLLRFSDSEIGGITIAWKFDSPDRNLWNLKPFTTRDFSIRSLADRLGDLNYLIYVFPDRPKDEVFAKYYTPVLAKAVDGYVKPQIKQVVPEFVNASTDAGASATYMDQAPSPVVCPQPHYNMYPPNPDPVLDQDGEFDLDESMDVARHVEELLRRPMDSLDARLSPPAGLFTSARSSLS
UniProt P45448: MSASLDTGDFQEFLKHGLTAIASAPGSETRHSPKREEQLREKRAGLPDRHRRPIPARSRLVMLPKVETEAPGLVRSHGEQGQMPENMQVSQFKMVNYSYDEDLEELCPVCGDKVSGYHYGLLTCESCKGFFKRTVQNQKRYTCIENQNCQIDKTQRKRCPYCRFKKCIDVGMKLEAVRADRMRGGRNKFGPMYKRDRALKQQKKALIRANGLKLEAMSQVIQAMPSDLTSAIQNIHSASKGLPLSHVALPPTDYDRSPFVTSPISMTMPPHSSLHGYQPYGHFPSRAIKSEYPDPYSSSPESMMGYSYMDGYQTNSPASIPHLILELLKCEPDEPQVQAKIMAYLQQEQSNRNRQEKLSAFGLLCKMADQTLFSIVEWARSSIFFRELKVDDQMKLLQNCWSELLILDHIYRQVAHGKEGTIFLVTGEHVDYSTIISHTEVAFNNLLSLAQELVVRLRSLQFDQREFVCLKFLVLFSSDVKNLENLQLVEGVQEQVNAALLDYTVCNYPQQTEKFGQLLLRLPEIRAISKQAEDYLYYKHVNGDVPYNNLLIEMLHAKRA
UniProt P28033: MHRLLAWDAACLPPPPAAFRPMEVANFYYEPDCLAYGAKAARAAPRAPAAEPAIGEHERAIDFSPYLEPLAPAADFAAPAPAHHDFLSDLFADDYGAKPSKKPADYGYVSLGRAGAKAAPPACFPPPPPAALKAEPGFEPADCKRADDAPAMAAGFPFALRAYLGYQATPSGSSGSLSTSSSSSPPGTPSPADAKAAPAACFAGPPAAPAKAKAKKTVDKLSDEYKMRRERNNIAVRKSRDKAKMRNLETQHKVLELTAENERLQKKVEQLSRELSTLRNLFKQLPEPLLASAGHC
UniProt P53566: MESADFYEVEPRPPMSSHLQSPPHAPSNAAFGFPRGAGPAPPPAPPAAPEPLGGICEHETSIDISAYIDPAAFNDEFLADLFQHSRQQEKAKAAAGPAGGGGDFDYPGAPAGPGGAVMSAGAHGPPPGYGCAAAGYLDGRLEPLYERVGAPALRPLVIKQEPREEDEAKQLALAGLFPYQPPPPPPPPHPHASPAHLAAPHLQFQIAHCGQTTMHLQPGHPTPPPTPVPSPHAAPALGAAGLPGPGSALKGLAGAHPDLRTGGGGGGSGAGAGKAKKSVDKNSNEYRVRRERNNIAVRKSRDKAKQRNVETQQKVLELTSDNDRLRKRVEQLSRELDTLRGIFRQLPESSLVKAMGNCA
UniProt P42232: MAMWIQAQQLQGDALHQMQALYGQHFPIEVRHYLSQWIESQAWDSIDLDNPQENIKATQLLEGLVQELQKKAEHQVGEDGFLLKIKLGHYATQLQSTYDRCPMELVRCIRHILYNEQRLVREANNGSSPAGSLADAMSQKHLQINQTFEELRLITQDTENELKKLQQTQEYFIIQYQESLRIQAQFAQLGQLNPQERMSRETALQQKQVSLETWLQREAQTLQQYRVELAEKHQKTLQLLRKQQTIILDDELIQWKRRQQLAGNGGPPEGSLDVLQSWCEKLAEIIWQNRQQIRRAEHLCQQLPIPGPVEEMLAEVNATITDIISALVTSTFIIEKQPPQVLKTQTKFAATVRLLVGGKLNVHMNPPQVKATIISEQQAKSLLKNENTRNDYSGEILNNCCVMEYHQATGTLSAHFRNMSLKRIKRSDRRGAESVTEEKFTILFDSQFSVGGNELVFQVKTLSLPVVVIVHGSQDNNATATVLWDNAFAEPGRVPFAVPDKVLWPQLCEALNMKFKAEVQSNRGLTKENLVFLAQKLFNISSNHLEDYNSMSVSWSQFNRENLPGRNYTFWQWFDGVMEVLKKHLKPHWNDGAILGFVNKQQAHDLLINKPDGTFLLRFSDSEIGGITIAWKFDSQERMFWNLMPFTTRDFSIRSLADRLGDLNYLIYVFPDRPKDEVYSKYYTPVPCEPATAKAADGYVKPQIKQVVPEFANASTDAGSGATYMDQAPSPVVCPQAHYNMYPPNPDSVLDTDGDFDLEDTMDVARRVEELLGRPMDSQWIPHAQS
UniProt Q8BRK8: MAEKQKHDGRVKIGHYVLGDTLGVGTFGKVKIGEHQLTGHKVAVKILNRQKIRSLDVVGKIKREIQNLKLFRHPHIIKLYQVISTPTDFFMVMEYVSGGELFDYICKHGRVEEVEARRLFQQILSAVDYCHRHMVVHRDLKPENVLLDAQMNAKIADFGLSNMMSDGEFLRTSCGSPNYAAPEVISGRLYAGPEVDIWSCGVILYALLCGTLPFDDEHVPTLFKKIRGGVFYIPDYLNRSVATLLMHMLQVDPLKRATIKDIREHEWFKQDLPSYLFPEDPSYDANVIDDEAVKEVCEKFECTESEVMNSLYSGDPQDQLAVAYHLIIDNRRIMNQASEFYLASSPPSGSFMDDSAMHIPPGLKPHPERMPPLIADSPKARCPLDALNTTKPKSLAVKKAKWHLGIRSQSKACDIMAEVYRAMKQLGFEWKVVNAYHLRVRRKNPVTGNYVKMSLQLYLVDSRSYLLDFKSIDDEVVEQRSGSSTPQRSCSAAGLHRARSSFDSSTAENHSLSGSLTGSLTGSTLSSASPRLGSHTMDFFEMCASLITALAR
UniProt Q60644: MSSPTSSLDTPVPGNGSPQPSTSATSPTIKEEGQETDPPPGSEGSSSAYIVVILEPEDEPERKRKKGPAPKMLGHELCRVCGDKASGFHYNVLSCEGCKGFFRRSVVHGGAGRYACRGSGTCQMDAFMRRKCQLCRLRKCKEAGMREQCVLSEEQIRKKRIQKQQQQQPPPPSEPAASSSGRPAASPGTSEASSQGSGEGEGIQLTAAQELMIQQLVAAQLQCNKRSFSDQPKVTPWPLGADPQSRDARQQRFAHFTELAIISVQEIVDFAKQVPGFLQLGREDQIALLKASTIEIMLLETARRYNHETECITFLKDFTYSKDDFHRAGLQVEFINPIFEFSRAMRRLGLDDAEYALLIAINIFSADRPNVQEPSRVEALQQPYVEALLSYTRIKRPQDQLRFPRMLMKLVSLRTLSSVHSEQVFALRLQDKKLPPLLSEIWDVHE

According to article PMC12700935:

B1: NCOA5 (protein, UniProt Q91W39 1-579)
chain: MNTAPSRPSPTRRDPYSFGDSRDTRRDRSPIRGSPRREPRDGRNGRDARDSRDIRDPRDLRDRRDSRDIRDHRDSRSVREARDLRDFRDFRDLRDSRDFRDHRDPVYDRYRDIRDSRDPLYRREGSYDRYLRVDDYCRRKDDSYFDRYRDSFDGRGPPGPESQSRAKERLKREERRREELYRRYFEEIQRRFDAERPVDCSVIVVNKQTKDYAESVGRKVRDLGMVVDLIFLNTEVSLSQALEDVSRGGSPFAIVITQQHQIHRSCTVNIMFGTPQEHRNMPQADAMVLVARNYERYKNDCREKEREEIARQAAKMANDAILQERDRGGPEEGGRGGHPPAIQSLINLLADNRYLTAEETDKIINYLRERKERLLRSSADSLPGPISRQPLGAASGSSLKSQPSSQPLQSGQVLPSATPTPAAPPTSQQELQAKILSLFNSGAVAANSSSASPSVATGSSQNQNFSTAANSQPQQRPQASGNQPPNIVGQAGSARNMGPRPGAPSQGLFGQPSSRLAPASTMASQRPVSSTGINFDNPSVQKALDTLIQSGPALSHLVSQTAAQVGRPQAPMGSYQRHY
B2: HNF4α (protein, UniProt P49698 1-474)
chain: MRLSKTLAGMDMADYSAALDPAYTTLEFENVQVLTMGNDTSPSEGANLNSSNSLGVSALCAICGDRATGKHYGASSCDGCKGFFRRSVRKNHMYSCRFSRQCVVDKDKRNQCRYCRLKKCFRAGMKKEAVQNERDRISTRRSSYEDSSLPSINALLQAEVLSQQITSPISGINGDIRAKKIANITDVCESMKEQLLVLVEWAKYIPAFCELLLDDQVALLRAHAGEHLLLGATKRSMVFKDVLLLGNDYIVPRHCPELAEMSRVSIRILDELVLPFQELQIDDNEYACLKAIIFFDPDAKGLSDPGKIKRLRSQVQVSLEDYINDRQYDSRGRFGELLLLLPTLQSITWQMIEQIQFIKLFGMAKIDNLLQEMLLGGSASDAPHTHHPLHPHLMQEHMGTNVIVANTMPSHLSNGQMCEWPRPRGQAATPETPQPSPPSGSGSESYKLLPGAITTIVKPPSAIPQPTITKQEAI
B3: YWHAG (protein, UniProt P61982 1-247)
chain: MVDREQLVQKARLAEQAERYDDMAAAMKNVTELNEPLSNEERNLLSVAYKNVVGARRSSWRVISSIEQKTSADGNEKKIEMVRAYREKIEKELEAVCQDVLSLLDNYLIKNCSETQYESKVFYLKMKGDYYRYLAEVATGEKRATVVESSEKAYSEAHEISKEHMQPTHPIRLGLALNYSVFYYEIQNAPEQACHLAKTAFDDAIAELDTLNEDSYKDSTLIMQLLRDNLTLWTSDQQDDDGGEGNN
B4: FXR (protein, UniProt Q60641 1-488)
chain: MVMQFQGLENPIQISLHHSHRLSGFVPEGMSVKPAKGMLTEHAAGPLGQNLDLESYSPYNNVPFPQVQPQISSSSYYSNLGFYPQQPEDWYSPGIYELRRMPAETGYQGETEVSEMPVTKKPRMAAASAGRIKGDELCVVCGDRASGYHYNALTCEGCKGFFRRSITKNAVYKCKNGGNCVMDMYMRRKCQECRLRKCKEMGMLAECMYTGLLTEIQCKSKRLRKNVKQHADQTANEDDSEGRDLRQVTSTTKFCREKTELTADQQTLLDYIMDSYNKQRMPQEITNKILKEEFSAEENFLILTEMATSHVQILVEFTKKLPGFQTLDHEDQIALLKGSAVEAMFLRSAEIFNKKLPAGHADLLEERIRKSGISDEYITPMFSFYKSVGELKMTQEEYALLTAIVILSPDRQYIKDREAVEKLQEPLLDVLQKLCKMYQPENPQHFACLLGRLTELRTFNHHHAEMLMSWRVNDHKFTPLLCEIWDVQ
B5: RXRα (protein, UniProt P28700 1-467)
chain: MDTKHFLPLDFSTQVNSSSLNSPTGRGSMAVPSLHPSLGPGIGSPLGSPGQLHSPISTLSSPINGMGPPFSVISSPMGPHSMSVPTTPTLGFGTGSPQLNSPMNPVSSTEDIKPPLGLNGVLKVPAHPSGNMASFTKHICAICGDRSSGKHYGVYSCEGCKGFFKRTVRKDLTYTCRDNKDCLIDKRQRNRCQYCRYQKCLAMGMKREAVQEERQRGKDRNENEVESTSSANEDMPVEKILEAELAVEPKTETYVEANMGLNPSSPNDPVTNICQAADKQLFTLVEWAKRIPHFSELPLDDQVILLRAGWNELLIASFSHRSIAVKDGILLATGLHVHRNSAHSAGVGAIFDRVLTELVSKMRDMQMDKTELGCLRAIVLFNPDSKGLSNPAEVEALREKVYASLEAYCKHKYPEQPGRFAKLLLRLPALRSIGLKCLEHLFFFKLIGDTPIDTFLMEMLEAPHQAT
B6: ChREB (protein, UniProt Q99MZ3 1-864)
chain: MARALADLSVNLQVPRVVPSPDSDSDTDLEDPSPRRSAGGLHRSQVIHSGHFMVSSPHSDSLTRRRDQEGPVGLADFGPRSIDPTLTHLFECLSLAYSGKLVSPKWKNFKGLKLLCRDKIRLNNAIWRAWYIQYVQRRKSPVCGFVTPLQGSEADEHRKPEAVILEGNYWKRRIEVVMREYHKWRIYYKKRLRKSSREGDFLAPKQVEGGWPPPERWCEQLFSSVVPVLLGGSEEEPGGRQLLDLDCFLSDISDTLFTMTQPSPSSLQLPPEDAYVGNADMIQPDLTPLQPSLDDFMEISDFFTNYRPPQTPTSSNYIESPSFGPMADSLFSSGILAPEMPSPASSSSSSGMTPHSGNTRLQARNSCSGPLDPNPFLSSEFLLPEDPKTKIPPAPGPTPLLPFPTPVKVHGLEPCTPSPFPTMAPPPSLLPEESLLSARFPFTSAPPAPGVSTLPAPTTFVPTPQPGPGPVPFSVDHLPHGYLEPVFGPHFTVPQGMQPRCKPSSPSPGGQKASPPTLASATASPTATATARDNNPCLTQLLRAAKPEQALEPPTMPGTLLRPPESPQDTVSEIPRARAFFPPIPAPTPPRPPPGPATLAPPRSLVVPKAERLSPPASSGSERRLSGDLNSIQPSGALSVHLSPPQTVLSRGRVDNNKMENRRITHISAEQKRRFNIKLGFDTLHGLVSTLSAQPSLKVSKATTLQKTAEYILMLQQERAAMQEEAQQLRDEIEELNAAINLCQQQLPATGVPITHQRFDQMRDMFDDYVRTRTLHNWKFWVFSILIRPLFESFNGMVSTASLHSLRQTSLAWLEQYCSLPALRPTVLNSLRQLSTSTSILTDPSLVPEQATRAVTEGTLGRPL

molecular target: Glucocorticoid Receptor (mouse (endogenous in liver)) (UniProt P06537); experiment: affinity purification with mass spectrometry; ChIP-MS: GR ChIP (6 µg anti-GR or IgG) from livers of control and caloric restricted mice at ZT12, four biological replicates; on-bead trypsin digestion, timsTOF pro2; enrichment GR over IgG

binding	Molecule
binds	PRKAγ1 (from UniProt O54950 1-330)
binds	DEPTOR (from UniProt Q570Y9 1-409)
binds	STAT5a (from UniProt P42230 1-793)
binds	LRH-1 (from UniProt P45448 1-560)
binds	CEBPβ (from UniProt P28033 1-296)
binds	CEBPα (from UniProt P53566 1-359)
binds	STAT5b (from UniProt P42232 1-786)
binds	PRKAα2 (from UniProt Q8BRK8 1-552)
binds	LXRβ (from UniProt Q60644 1-446)
binds	B1
binds	B2
binds	B3
binds	B4
binds	B5
binds	B6

Results are given in words; binding and its absence hold for the method and conditions named. Binding seen in cells or lysates may run through a third protein. A yes stands for co-enrichment or nearness to the bait. Other partners may have been found.
